Source: the supplement of paper PMC7411640
Where a name gives a salt, the structure may show the parent alone. Some of the results follow. Repeats in this data set agree poorly, so a single value says little.

System: MDA-MB-468
Test: phospho-S6 immunofluorescence (DAPI-normalised), per-plate z-score; higher = higher phospho-S6 signal (less pathway suppression)
Conditions: 24 h
Description: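 GPCR-targeted compound library (MedChemExpress HY-L006) tested on MDA-MB-468 PTEN-null TNBC cells in 384-well plates at 0.1, 1 or 10 uM, combined with vehicle, GDC0941 450 nM or lapatinib 1 uM, for 24 h. Phospho-S6 (S240/244) immunofluorescence normalised to DAPI and expressed as a per-plate z-score; values are the mean of biological triplicates.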

[1] = compound 0.1 µM, co-treatment: GDC0941 450 nM
[2] = compound 0.1 µM, co-treatment: lapatinib 1 uM
[3] = compound 0.1 µM, co-treatment: vehicle
[4] = compound 1 µM, co-treatment: GDC0941 450 nM
[5] = compound 1 µM, co-treatment: lapatinib 1 uM
[6] = compound 1 µM, co-treatment: vehicle
[7] = compound 10 µM, co-treatment: GDC0941 450 nM
[8] = compound 10 µM, co-treatment: lapatinib 1 uM
[9] = compound 10 µM, co-treatment: vehicle

Row | SMILES | phospho-S6 immunofluorescence (z-score) [1] | phospho-S6 immunofluorescence (z-score) [2] | phospho-S6 immunofluorescence (z-score) [3] | phospho-S6 immunofluorescence (z-score) [4] | phospho-S6 immunofluorescence (z-score) [5] | phospho-S6 immunofluorescence (z-score) [6] | phospho-S6 immunofluorescence (z-score) [7] | phospho-S6 immunofluorescence (z-score) [8] | phospho-S6 immunofluorescence (z-score) [9]
1 | CCN1CCCC1CNC(=O)c1cc(S(=O)(=O)CC)c(N)cc1OC (stereo not drawn) [Amisulpride] | 0.98 | 0.25 | -0.16 | 0.39 | 0.09 | -0.05 |  |  | 
2 | CCN(CC)CC#CCOC(=O)C(O)(c1ccccc1)C1CCCCC1 (stereo not drawn) [Oxybutynin] | -0.85 | -0.28 | 1.15 | 0.12 | 0.18 | 0.18 |  |  | 
3 | CN(C)CCN1C(=O)c2cccc3cc(NC(N)=O)cc(c23)C1=O | 1.25 | 0.53 | -0.9 | 4.63 | 2.62 | 0.29 | 1.29 | 7.09 | 0.12
4 | CN(C)N(C)C(=O)[C@@]1(Cc2ccccc2)CCCN(C(=O)[C@@H](Cc2c[nH]c3ccccc23)NC(=O)C(C)(C)N)C1 [Anamorelin (hydrochloride)] | -1.59 | -0.11 | -0.99 | -0.7 | -0.12 | -1.45 |  |  | 
5 | CC[C@H](C)[C@@H]1NC(=O)[C@H](Cc2ccc(OC)cc2)NC(=O)CCCSC[C@@H](C(=O)N2CCC[C@H]2C(=O)N[C@@H](CC(C)C)C(=O)NCC(N)=O)NC(=O)[C@H](CC(N)=O)NC(=O)[C@H](CCC(N)=O)NC1=O [Carbetocin] | 0.33 | 0.43 | 0.9 | 0.54 | 0 | 0.76 |  |  | 
6 | CN(C)CCOC(C)(c1ccccc1)c1ccccn1 (stereo not drawn) [Doxylamine (succinate)] | 0.4 | -0.56 | -0.14 | -0.07 | -0.71 | 0.03 | 0.33 | -0.64 | 0.58
7 | CNC[C@H](O)c1ccc(O)c(O)c1 [L-Epinephrine (Bitartrate)] | -1.12 | 2.65 | -0.56 | 0.3 | 3.13 | -0.97 |  |  | 
8 | CN(C)N(C)C(=O)[C@@]1(Cc2ccccc2)CCCN(C(=O)[C@@H](Cc2c[nH]c3ccccc23)NC(=O)C(C)(C)N)C1 [Anamorelin] | 0.81 | -0.48 | -0.5 | -0.13 | -0.68 | 1.39 |  |  | 
9 | O=C1CCC(c2ccccc2)(C2CCN(Cc3ccccc3)CC2)C(=O)N1 (stereo not drawn) [Benzetimide (hydrochloride)] | -1.12 | 0.17 | 0.04 | 0.8 | -0.99 | 0.49 |  |  | 
10 | OCC1OC(n2cnc3c(NCCc4ccccc4)ncnc32)C(O)C1O (stereo not drawn) [N6-(2-Phenylethyl)adenosine] | -0.14 | 0.25 | -0.46 | 0.74 | 1.78 | 0.77 |  |  | 
11 | C[N+]1(C)CCC(OC(=O)C(O)(c2ccccc2)C2CCCC2)C1 (stereo not drawn) [Glycopyrrolate] | 0.44 | 0.34 | 1.74 | 0.33 | -0.05 | 1.14 |  |  | 
12 | CC(C[N+](C)(C)C)OC(N)=O (stereo not drawn) [Bethanechol (chloride)] | 0.25 | -1.04 | 1.11 | 0.07 | -0.61 | 0.67 |  |  | 
13 | CN1CCC(=C2c3ccccc3C=Cc3ccccc32)CC1 [Cyproheptadine (hydrochloride sesquihydrate)] | -0.04 | 0.6 | -1 | -0.3 | 1.97 | -1.74 |  |  | 
14 | CCC/N=C1\S/C(=C\c2ccc(OC[C@H](O)CO)c(Cl)c2)C(=O)N1c1ccccc1C [Ponesimod] | 0.05 | 0.97 | 0.68 | 0.94 | 0.37 | 0.65 |  |  | 
15 | O=C(COc1ccc(C(=O)c2ccccc2)cc1)NC1CCN(Cc2ccccc2)CC1 [AdipoRon] | 0.51 | 0.26 | -0.25 | -1.48 | 0.25 | 0.3 |  |  | 
16 | CC(=O)OCC(=O)NCCCOc1cccc(CN2CCCCC2)c1 [Roxatidine (Acetate Hydrochloride)] | 0.18 | 0.58 | 0.71 | 0.64 | -0.3 | 0.68 |  |  | 
17 | C[C@@H](NCCCc1cccc(C(F)(F)F)c1)c1cccc2ccccc12 [Cinacalcet (hydrochloride)] | -1.53 | 0.01 | -0.68 | -0.74 | -0.53 | -0.7 | -5.88 | -11.2 | -9.18
18 | CCCc1nc2c(C)cc(-c3nc4ccccc4n3C)cc2n1Cc1ccc(-c2ccccc2C(=O)O)cc1 [Telmisartan] | 0 | 0.4 | 0.35 | -0.27 | -0.49 | 0.3 | 0.54 | 1.6 | 0.35
19 | CCNC(=O)[C@H]1O[C@@H](n2cnc3c(N)nc(NCCc4ccc(CCC(=O)O)cc4)nc32)[C@H](O)[C@@H]1O | 0.32 | -0.65 | -0.21 | 0.1 | -0.2 | 0.13 | 0.05 | 1.28 | -0.14
20 | Clc1ccc2c(c1)CCc1cccnc1C2=C1CCNCC1 [Desloratadine] | -1.09 | -0.56 | -0.53 | 0.29 | -0.88 | 0.04 | -0.48 | -1.96 | 0.51
21 | CCCCC[C@H](O)/C=C/[C@H]1[C@H](O)CC(=O)[C@@H]1CCCCCCC(=O)O [Prostaglandin E1] | -0.47 | -0.46 | -0.23 | -0.45 | 0.35 | -0.29 | -0.04 | 1.48 | -0.27
22 | NC(=O)[C@@H]1CCCC[C@@H]1C(=O)Nc1ccc(Cl)c(Cl)c1 | -0.07 | -0.24 | 0.81 | 0.05 | 0.9 | 0.57 | 0.33 | -0.14 | 0.47
23 | CCOc1nc2cccc(C(=O)OC(C)OC(=O)OC3CCCCC3)c2n1Cc1ccc(-c2ccccc2-c2nn[nH]n2)cc1 (stereo not drawn) [Candesartan (Cilexetil)] | -1.96 | 0.05 | -0.22 | -0.79 | 0.14 | -0.19 | -1.58 | 0.17 | -1.08
24 | C[C@]12C=CC(=O)C=C1CC[C@@H]1[C@@H]2[C@@H](O)C[C@@]2(C)[C@H]1CC[C@]2(O)C(=O)CO [Prednisolone] | -1.53 | 0.42 | -0.63 | -1.16 | 1.12 | 0.06 | 0.01 | 1.18 | 0.05
25 | COc1cc(C(C)=O)ccc1OCCCN1CCC(c2noc3cc(F)ccc23)CC1 [Iloperidone] | 1.24 | -0.23 | -0.07 | -0.48 | 0.27 | -0.7 | 0.52 | -0.23 | 0.38

Reprinted: entries 6–7
Row | SMILES | phospho-S6 immunofluorescence (z-score) [1] | phospho-S6 immunofluorescence (z-score) [2] | phospho-S6 immunofluorescence (z-score) [3] | phospho-S6 immunofluorescence (z-score) [4] | phospho-S6 immunofluorescence (z-score) [5] | phospho-S6 immunofluorescence (z-score) [6] | phospho-S6 immunofluorescence (z-score) [7] | phospho-S6 immunofluorescence (z-score) [8] | phospho-S6 immunofluorescence (z-score) [9]
6 | CN(C)CCOC(C)(c1ccccc1)c1ccccn1 (stereo not drawn) [Doxylamine (succinate)] | 0.4 | -0.56 | -0.14 | -0.07 | -0.71 | 0.03 | 0.33 | -0.64 | 0.58
7 | CNC[C@H](O)c1ccc(O)c(O)c1 [L-Epinephrine (Bitartrate)] | -1.12 | 2.65 | -0.56 | 0.3 | 3.13 | -0.97 |  |  | 
